Results from the supplement of paper PMC7858590.
± gives the standard deviation of the averaged measurements. Over roughly 3,800 compounds, “cell shape (eccentricity) Z-score vs DMSO control” has its median near 1.1; the lowest 2% begin near -4.7. This is one part of the list.

system: human monocyte-derived macrophages (M0); assay: cell shape (eccentricity) Z-score vs DMSO control; higher = more elongated, M2-like morphology; settings: 20 µM; 24 h; macrophage state: M0 (M-CSF)

Row | SMILES | cell shape (Z-score)
1 | COc1cc(-c2coc3cc(OC)c(OC)c(OC)c3c2=O)cc(OC)c1OC | -0.253
2 | NC1CCN(c2cccc(Cl)n2)CC1 | -0.0172
3 | CC(C)=CCC[C@]1(C)[C@@H](CC=C(C)C)CC2(CC=C(C)C)C(=O)C(CC=C(C)C)C(=O)[C@@]1(C(=O)C(C)C)C2=O (some centres not stated) | 1.59
4 | Oc1ccc2c(c1O)OCC1c3cc4c(cc3OC21)OCO4 (configuration not stated) | 6.06
5 | O=C(NCCCN1CCCCCC1)C(c1ccccc1)C1CCCCC1 (configuration not stated) | 1.44
6 | Fc1cc(-c2cccc3ncc(-c4cnn(C5CCNCC5)c4)nc23)cc(F)c1CN1CCOCC1 | 4.2
7 | CC(C)CCOC(=O)c1ccc(N(C)C)cc1 | 0.629
8 | COc1cc2c(cc1O)C(=O)CC1C(C)(C)C(=O)CCC21C (configuration not stated) | 1.43
9 | CCOC(=O)CSCCC1NC(C(=O)O)CS1 (configuration not stated) | -0.811
10 | O[C@@H]1[C@@H](O)[C@H](OC/C=C/c2ccccc2)O[C@H](CO[C@@H]2OC[C@H](O)[C@H](O)[C@H]2O)[C@H]1O | 1.13 ± 0.51
11 | NS(=O)(=O)c1ccc(N2CCN(CC[C@@H]3OCCc4ccccc43)CC2)cc1 | -0.418
12 | CCCC[C@@H](C)/C=C(C)/C=C(\C)C(=O)NC1=C[C@@](O)(/C=C/C=C/C=C/C(=O)NC2C(=O)CCC2=O)[C@@H]2O[C@@H]2C1=O | 0.108
13 | O=C(O)C1C(=CCO)OC2CC(=O)N21 (configuration not stated) | 0.00862
14 | CC(C)n1cnc2c(NCCc3ccc(O)cc3)nc(-c3csc4ccccc34)nc21 | 7.21
15 | O=C(NCCCCN1CCOCC1)c1cc2ccccc2o1 | -0.102
16 | COc1c2c(c(C)c3c1C(=O)OC3)OC1(C)CC(O)C3(O)C(C)(C)OC(=O)CCC3(C)C1C2 (configuration not stated) | 1.19
17 | CCS(=O)(=O)N(C)[C@H]1c2cc(C#N)ccc2OC(C)(C)[C@@H]1O | 0.869
18 | O=C(NCCN1CCCCC1)c1ccc(I)cc1 | 7.59
19 | CCN(CC)C(=O)c1ccc(O)c(OC)c1 | -0.468
20 | COC(=O)C=Cc1cc(O)ccc1O | -1.27
21 | CNC(=O)c1cc2c(cn1)[nH]c1ccccc12 | 0.782
22 | COC(=O)c1cc(O)cc(OC)c1Oc1c(Cl)c(C)c(Cl)c(O)c1C(=O)O | 1.39
23 | C[C@@H]1O[C@@H](O[C@@H]2[C@@H](O)[C@H](Oc3c(-c4ccc(O)cc4)oc4cc(O)cc(O)c4c3=O)O[C@H](CO)[C@H]2O)[C@H](O)[C@H](O)[C@H]1O | 0.71
24 | C[C@]12CCC(=O)C=C1CCC1C2[C@@H](O)C[C@@]2(C)C1CC[C@]2(O)C(=O)COC(=O)CCC(=O)O (some centres not stated) | -1.19
25 | C=CCc1cccc(/C=N/NC(=O)CN2CCN(Cc3ccccc3)CC2)c1O | -0.15
26 | CCCCCCCCN1C(=O)C(C(C)=O)=C(C)C1(C)O (configuration not stated) | 2.73
27 | CCCc1nc(C)c2c(=O)[nH]c(-c3cc(S(=O)(=O)N4CCN(CC)CC4)ccc3OCC)nn12 | 2.12

A few values from the list.
O=C(NCCCN1CCCCCC1)C(c1ccccc1)C1CCCCC1 (configuration not stated) – cell shape (Z-score): 1.44
CCCc1nc(C)c2c(=O)[nH]c(-c3cc(S(=O)(=O)N4CCN(CC)CC4)ccc3OCC)nn12 – cell shape (Z-score): 2.12
